Paper PMC10656311, “Evaluation of the probable synergistic toxicity of selected potentiated antiretroviral and antibiotics on some aquatic biomarker organisms” (Environmental Monitoring and Assessment, 2023)
Like-named read-outs stand apart in the source and are kept apart here.

What was measured:
[1] = system: Salmonella typhimurium TA100 P450; test: Ames mutagenicity test (agar plate method), strain TA100 P450; format: cell-based; settings: TA 100 P450; for Number of revertant colonies per plate, NR 2: plate 2; for Number of revertant colonies per plate, NR 1: plate 1; for Number of revertant colonies per plate, NR3: plate 3
Protocol: (§1) Bacterial growth was confirmed by visual turbidity inspection. […] All experiments were carried out in triplicate.

[2] = system: Daphnia magna; settings: toxic unit of the constituent in the LCS mixture
[3] = system: root tip meristem cells of Allium cepa; test: Allium cepa root tip microscopic examination (chromosomal aberrations); format: cell-based
Protocol: (§2) Whole-onions test specimens were grown at room temperature (in triplicate). The onions were initially grown for 2 days in tap water. Prior to growing them in tap water, the ring of the root, the primordia at the bottom of the onion bulb, was scraped with a sterile surgical blade to remove all existing root growth. After 2 days of tap water exposure, the lengths of the root fibers of each onion were measured and recorded. This was followed by exposure to the test solutions for another 2 days (tap water was used as the control). […] At the end of the exposure, the onion roots were cut 3 cm from the tip and placed in Carnoy’s fixative solution ([…] (Merck, Germany)) until further microscopic analysis.
This was followed by washing the root tips in distilled water, after which they were stained using Feulgen stain for 2–3 min. The stained root tips were then rinsed in distilled water, transferred onto clean glass microscope slides, and counter-stained with acetocarmine. […] The squashed onion root tips were thereafter imaged using a LEICA DM-750 light microscope at × 400 and × 1000 magnifications.
Microscopic evaluation of Allium cepa cells during mitosis was conducted to ascertain the impacts the L, C, and S test samples (lone and mixtures) will have on the genetic materials of the onion roots at cellular levels.

[4] = system: Allium cepa; test: Allium cepa root length assay (phytotoxic inhibition of root growth); format: in vivo
Protocol: as §2
The test APCs and their mixtures in different combinations were investigated for their phytotoxic characteristics at 10 µg/L and 100 µg/L concentrations, using A. cepa bioassays. The root length assay relies on evaluating the root length of A. cepa as an indicator endpoint to assess the susceptibility of plants exposed to xenobiotics by evaluating physical impacts on their root growth. The ratio between the root length (mm) (RRL) after and before exposure to test solutions ( ^RLAERLBE ) was used as indices for the APCs’ phytotoxicity.

[5] = system: Salmonella typhimurium TA98 P450; format: cell-based; settings: for Number of revertant colonies per plate, NR 1: plate 1; for Number of revertant colonies per plate, NR 2: plate 2
Protocol: as §1

Structure (SMILES)	Number of revertant colonies per plate, NR 2 ([1]; 10 µg/L)	Toxic unit 24 hrs [2]	A. cepa root exposure C.A (chromosomal aberration) ([3]; 10 µg/L)	A. cepa root exposure C.A (chromosomal aberration) ([3]; 100 µg/L)	A. cepa root exposure R.L ([4]; 10 µg/L)	A. cepa root exposure R.L ([4]; 100 µg/L)	Number of revertant colonies per plate, Mean ([1]; 10 µg/L)	Number of revertant colonies per plate, NR 1 ([1]; 10 µg/L)	Number of revertant colonies per plate, NR3 ([1]; 10 µg/L)	Number of revertant colonies per plate, Mean ([1]; 100 µg/L)	Number of revertant colonies per plate, NR 1 ([1]; 100 µg/L)	Number of revertant colonies per plate, NR 2 ([1]; 100 µg/L)	Number of revertant colonies per plate, NR3 ([1]; 100 µg/L)	Toxic unit 48 hrs ([2]; 48 h)	Number of revertant colonies per plate, Mean ([5]; 10 µg/L)	Number of revertant colonies per plate, NR 1 ([5]; 10 µg/L)	Number of revertant colonies per plate, NR 2 ([5]; 10 µg/L)	Number of revertant colonies per plate, NR 1 ([5]; 100 µg/L)	Number of revertant colonies per plate, NR 2 ([5]; 100 µg/L)
O=C(O)c1cn(C2CC2)c2cc(N3CCNCC3)c(F)cc2c1=O [Ciprofloxacin, ciprofloxacin]	220	0.38	-	+	-	-													
Cc1cc(NS(=O)(=O)c2ccc(N)cc2)no1 [Sulfamethoxazole, sulfamethoxazole]	230	0.38	-	+	-	-	257	270	270	250	310	220	220	1.17	13	21	14	24	20
